# Values from PubChem BioAssay AID1259405 (NCATS, 2018).
# Test: 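Silenced genes that increase secreted GFP made by CHO cells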 (primary screen)
# Cell system: Chinese hamster CHO-K1 ovary cells with stable secreted eGFP expression
# Reagent: single siRNA against mouse genes, 0.8 pmol siRNA per well (2 µl of 400 nM stock)
# Timing: 3 days
# Measured: 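Percent of the per-plate non-targeting control median for intracellular GFP per well by laser scanning cytometry and for cell viability by ATP luminescence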
# Direction: GFP, % of control: higher = more GFP per well, higher productivity; viability (ATP), % of control: higher = more viable cells (more ATP)
# Active means: 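Called active when intracellular GFP, relative to negative control, is at or above 120%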
# In all, the deposit lists about 50,000 reagents; below is a part drawn at random. About 4,000 of them (8%) were called active. 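Mouse siRNA library applied to hamster cells; one well for each siRNA.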 Reagents against one gene are numbered here. Reagent sequences are not shown.
target,reagent no.,"GFP, % of control","viability (ATP), % of control",Call
Zfp169 (zinc finger protein 169),1,77.9,73.8,inactive
Zfp169 (zinc finger protein 169),2,53.4,61.8,inactive
Cpsf3 (cleavage and polyadenylation specificity factor 3),1,112,95.4,inactive
Cpsf3 (cleavage and polyadenylation specificity factor 3),2,104,87.2,inactive
Cpsf3 (cleavage and polyadenylation specificity factor 3),3,107,80.1,inactive
Ddx60 (DExD/H box helicase 60),1,54.8,38.8,inactive
Ddx60 (DExD/H box helicase 60),2,103,94.5,inactive
Ddx60 (DExD/H box helicase 60),3,47.5,73,inactive
Polr2g (polymerase (RNA) II (DNA directed) polypeptide G),1,78.4,80.7,inactive
Polr2g (polymerase (RNA) II (DNA directed) polypeptide G),2,64.6,23.8,inactive
Polr2g (polymerase (RNA) II (DNA directed) polypeptide G),3,107,35.2,inactive
Mrfap1 (Morf4 family associated protein 1),1,124,89.2,active
Mrfap1 (Morf4 family associated protein 1),2,57.9,76.1,inactive
Mrfap1 (Morf4 family associated protein 1),3,115,101,inactive
Smarca2,1,82.1,71.3,inactive
Smarca2,2,90.7,86,inactive
Smarca2,3,66,51.7,inactive
Il24 (interleukin 24),1,99.1,127,inactive
Il24 (interleukin 24),2,102,72,inactive
Npepl1 (aminopeptidase-like 1),1,76.8,76.2,inactive
Npepl1 (aminopeptidase-like 1),2,73.5,81.2,inactive
Npepl1 (aminopeptidase-like 1),3,37,46.9,inactive
Adgrg3 (adhesion G protein-coupled receptor G3),1,95.5,92.2,inactive
Adgrg3 (adhesion G protein-coupled receptor G3),2,115,75.7,inactive
Adgrg3 (adhesion G protein-coupled receptor G3),3,49.5,37.9,inactive
Ndufb7 (NADH:ubiquinone oxidoreductase subunit B7),1,74.9,100,inactive
Ndufb7 (NADH:ubiquinone oxidoreductase subunit B7),2,100,73.5,inactive
"Fads6 (fatty acid desaturase domain family, member 6)",1,83,86,inactive
"Fads6 (fatty acid desaturase domain family, member 6)",2,93.9,97.5,inactive
Hycc1 (hyccin PI4KA lipid kinase complex subunit 1),1,95.6,75,inactive
Hycc1 (hyccin PI4KA lipid kinase complex subunit 1),2,83.8,88.8,inactive
Hycc1 (hyccin PI4KA lipid kinase complex subunit 1),3,126,93,active
"C1ql4 (complement component 1, q subcomponent-like 4)",1,47.8,44.7,inactive
"C1ql4 (complement component 1, q subcomponent-like 4)",2,26.9,56.8,inactive
"C1ql4 (complement component 1, q subcomponent-like 4)",3,40.5,38.5,inactive
Lce1c (late cornified envelope 1C),1,87.7,96.6,inactive
Lce1c (late cornified envelope 1C),2,94.2,91.8,inactive
Lce1c (late cornified envelope 1C),3,109,80.6,inactive
Gpr141b (G protein-coupled receptor 141B),1,87.8,86.6,inactive
Gpr141b (G protein-coupled receptor 141B),2,106,89,inactive
Gpr141b (G protein-coupled receptor 141B),3,108,84.5,inactive
Ctu2 (cytosolic thiouridylase subunit 2),1,104,92.6,inactive
Ctu2 (cytosolic thiouridylase subunit 2),2,114,71.7,inactive
Ctu2 (cytosolic thiouridylase subunit 2),3,69.6,68.7,inactive
Ankrd69 (ankyrin repeat domain 69),1,54.6,29.6,inactive
Ankrd69 (ankyrin repeat domain 69),2,91.1,46,inactive
Ankrd69 (ankyrin repeat domain 69),3,81.2,89.3,inactive
Hivep2,1,70.4,79.2,inactive
Hivep2,2,52.7,69.3,inactive
Hivep2,3,55.8,88.1,inactive
Dusp10 (dual specificity phosphatase 10),1,81.5,82.1,inactive
Dusp10 (dual specificity phosphatase 10),2,94.9,90.8,inactive
Fbxw24 (F-box and WD-40 domain protein 24),1,79.6,84.9,inactive
Fbxw24 (F-box and WD-40 domain protein 24),2,86.3,55.6,inactive
Fbxw24 (F-box and WD-40 domain protein 24),3,92.2,85.7,inactive
Zfp526 (zinc finger protein 526),1,63.8,68.4,inactive
Zfp526 (zinc finger protein 526),2,60,65.6,inactive
Zfp526 (zinc finger protein 526),3,37.3,42.2,inactive

Single entries from above.
Result of Smarca2 #3 in “GFP, % of control”: 66
For “Call”, Fbxw24 (F-box and WD-40 domain protein 24) #2 has inactive
Under “viability (ATP), % of control”, Gpr141b (G protein-coupled receptor 141B) #3 shows 84.5
